The exact form of at least one protein or probe is not confirmed. For part of these data: A negative result means that nothing was seen under these conditions. For part of these data: At least one verdict was read from the data and is not stated in words by the source.
How the values were obtained:
[1] = biological target: SRA (human) (UniProt Q96T88); test: ITC; conditions: 5-methyl-dC at position 6 of strand 1 (GGGCCXGCAGGG); ITC: 10 mM HEPES pH 8.0, 100 mM NaCl, 18 C; recombinant protein; residues 414-617; protein details: GST tag cleaved (PreScission)
[2] = biological target: Spacer (human) (UniProt Q96T88); test: ITC; conditions: no interaction; 5-methyl-dC at position 6 of strand 1 (GGGCCXGCAGGG); ITC: 10 mM HEPES pH 8.0, 100 mM NaCl, 18 C; recombinant protein; residues 587-674; protein details: GST tag cleaved (PreScission)
[3] = biological target: SRA-Spacer (human) (UniProt Q96T88); test: ITC; conditions: 5-methyl-dC at position 6 of strand 1 (GGGCCXGCAGGG); ITC: 10 mM HEPES pH 8.0, 100 mM NaCl, 18 C; recombinant protein; residues 414-674; protein details: GST tag cleaved (PreScission)
[4] = biological target: UHRF1 full-length (human) (UniProt Q96T88); test: pull-down; conditions: without histone peptide; 5-methyl-dC at position 6 of strand 1 (GAGGCXGCCTGC); pull-down: 20 mM HEPES-NaOH pH 8.0, 100 mM NaCl, 5% glycerol, 0.1% Triton X-100, 4 C; recombinant protein; residues 1-793; protein details: GST tag cleaved (PreScission); label: 5' biotin on strand 2
[5] = biological target: SRA (human) (UniProt Q96T88); test: FP; conditions: 5-methyl-dC at position 6 of strand 2 (GTCAGXGCATGG), recombinant protein, residues 414-617, protein details: GST tag cleaved (PreScission), label: FAM on strand 1

Amino acid sequences for entries named in this document (tags omitted). Residues count along the entry.
UniProt Q96T88, 414-617: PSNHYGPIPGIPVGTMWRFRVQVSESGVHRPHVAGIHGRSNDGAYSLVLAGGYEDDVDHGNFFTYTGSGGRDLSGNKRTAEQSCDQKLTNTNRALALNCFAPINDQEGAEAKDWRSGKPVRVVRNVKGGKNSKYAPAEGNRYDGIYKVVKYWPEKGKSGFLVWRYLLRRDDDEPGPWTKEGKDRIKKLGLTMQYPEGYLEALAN
UniProt Q96T88, 587-674: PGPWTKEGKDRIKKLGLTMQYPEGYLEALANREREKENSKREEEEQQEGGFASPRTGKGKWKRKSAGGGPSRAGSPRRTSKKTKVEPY
UniProt Q96T88, 414-674: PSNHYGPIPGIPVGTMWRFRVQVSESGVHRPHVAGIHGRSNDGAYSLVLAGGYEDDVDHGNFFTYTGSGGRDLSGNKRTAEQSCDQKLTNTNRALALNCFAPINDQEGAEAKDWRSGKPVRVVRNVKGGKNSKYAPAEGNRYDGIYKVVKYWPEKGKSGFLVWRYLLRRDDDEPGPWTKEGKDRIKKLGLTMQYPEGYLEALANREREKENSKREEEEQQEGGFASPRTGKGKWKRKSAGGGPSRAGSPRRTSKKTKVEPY

Sequence: GGGCCCGCAGGG (double strand) [12-bp hm-DNA (ITC)]
- Kd [1]: 25.1 µM
- binding result [2]: no binding
- Kd [3]: 1.75 µM

Sequence: GAGGCCGCCTGC (double strand) [biotin-hm-DNA 12 bp (pull-down)]
- binding result [4]: binds

Sequence: CCATGCGCTGAC (double strand) [FAM-12bp-HM-DNA]
- Kd ([5]; 150 mM NaCl): 5.92 µM
- Kd ([5]; DNA length series): 12.8 µM
